Experiment: Detection of PFAS in synthetic breath samples (headspace device, SuperSESI-X, Exploris 120 HRMS)
Set-up: species or system human
[1] = Breath 1 + PFAS-mix, low concentration PFAS mixture in headspace device
[2] = Breath 2 + PFAS-mix, low concentration PFAS mixture in headspace device
[3] = Breath 3 + PFAS-mix, low concentration PFAS mixture in headspace device
[4] = Breath 4 + PFAS-mix, low concentration PFAS mixture in headspace device
[5] = Breath 5 + PFAS-mix, low concentration PFAS mixture in headspace device
[6] = Breath 11 + PFAS-mix, relatively higher concentration PFAS mixture in headspace device
[7] = Breath 12 + PFAS-mix, relatively higher concentration PFAS mixture in headspace device
[8] = Breath 13 + PFAS-mix, relatively higher concentration PFAS mixture in headspace device
[9] = Breath 14 + PFAS-mix, relatively higher concentration PFAS mixture in headspace device
[10] = Breath 15 + PFAS-mix, relatively higher concentration PFAS mixture in headspace device

| SMILES | PFAS level in synthetic breath [1] | PFAS level in synthetic breath [2] | PFAS level in synthetic breath [3] | PFAS level in synthetic breath [4] | PFAS level in synthetic breath [5] | PFAS level in synthetic breath [6] | PFAS level in synthetic breath [7] | PFAS level in synthetic breath [8] | PFAS level in synthetic breath [9] | PFAS level in synthetic breath [10] |
| --- | --- | --- | --- | --- | --- | --- | --- | --- | --- | --- |
| O=S(=O)(O)C(F)(F)C(F)(F)C(F)(F)C(F)(F)C(F)(F)C(F)(F)C(F)(F)C(F)(F)F [PFOS, Perfluorooctanesulfonic acid] | 2.11E+05 | 208000 | 200000 | 176000 | 140000 | 1790000 | 1610000 | 1630000 | 2080000 | 1710000 |
| O=C(O)C(F)(F)C(F)(F)C(F)(F)C(F)(F)F [PFPeA, Perfluoropentanoic Acid] | 42500 | 25900 | 16000 | 11600 | 11400 | 94800 | 122000 | 121000 | 115000 | 111000 |
| O=C(O)C(F)(F)C(F)(F)C(F)(F)C(F)(F)C(F)(F)C(F)(F)C(F)(F)C(F)(F)C(F)(F)C(F)(F)C(F)(F)C(F)(F)F [PFTrDA, Perfluorotridecanoic acid] | 99400 | 98800 | 93300 | 76900 | 51600 | 236000 | 218000 | 274000 | 341000 | 255000 |
| O=C(O)C(F)(F)C(F)(F)C(F)(F)C(F)(F)C(F)(F)C(F)(F)C(F)(F)C(F)(F)F [PFNA, Perfluorononanoic acid] | 665000 | 635000 | 597000 | 501000 | 357000 | 884000 | 967000 | 1140000 | 1390000 | 1110000 |
| O=C(O)C(F)(F)C(F)(F)C(F)(F)F [PFBA, Perfluorobutanoic acid] | 9760 | 5400 | 189000 | 174500 | 156000 | 195000 | 234000 | 213000 | 240000 | 247000 |
| O=C(O)C(F)(F)C(F)(F)C(F)(F)C(F)(F)C(F)(F)C(F)(F)C(F)(F)C(F)(F)C(F)(F)C(F)(F)F [PFUnDA, Perfluoroundecanoic acid] | 320000 | 309000 | 300000 | 232000 | 244000 | 420000 | 480000 | 649000 | 708000 | 628000 |
| NS(=O)(=O)C(F)(F)C(F)(F)C(F)(F)C(F)(F)C(F)(F)C(F)(F)C(F)(F)C(F)(F)F [PFOSA, Perfluorooctanesulfonamide] | 2.04E+06 | 2.04E+06 | 1950000 | 1810000 | 1470000 | 15300000 | 15400000 | 13600000 | 19500000 | 16100000 |
| O=C(O)C(F)(F)C(F)(F)C(F)(F)C(F)(F)C(F)(F)C(F)(F)C(F)(F)C(F)(F)C(F)(F)C(F)(F)C(F)(F)F [PFDoDA, Perfluorododecanoic] | 171000 | 168000 | 159000 | 135000 | 119000 | 345000 | 310000 | 384000 | 448000 | 387000 |
| CCN(CC(=O)O)S(=O)(=O)C(F)(F)C(F)(F)C(F)(F)C(F)(F)C(F)(F)C(F)(F)C(F)(F)C(F)(F)F [N-EtFOSAA, 2-(N-Ethylperfluorooctanesulfonamido) acetic acid] | 9150 | 9330 | 9360 | 8260 | 6890 | 12500 | 16300 | 15700 | 26500 | 21200 |
| O=C(O)C(F)(F)C(F)(F)C(F)(F)C(F)(F)C(F)(F)C(F)(F)F [PFHpA, Perfluoroheptanoic acid] | 491000 | 331000 | 275000 | 188000 | 204000 | 542000 | 777000 | 738000 | 741000 | 1010000 |
| O=C(O)C(F)(F)C(F)(F)C(F)(F)C(F)(F)C(F)(F)F [PFHxA, Perfluorohexanoic Acid] | 233000 | 649000 | 645000 | 599000 | 743000 | 882000 | 983000 | 721000 | 797000 | 745000 |
| O=C(O)C(F)(F)C(F)(F)C(F)(F)C(F)(F)C(F)(F)C(F)(F)C(F)(F)F [PFOA, Perfluorooctanoic Acid] | 598000 | 501000 | 434000 | 328000 | 308000 | 618000 | 816000 | 989000 | 1190000 | 1160000 |
| O=C(O)C(F)(F)C(F)(F)C(F)(F)C(F)(F)C(F)(F)C(F)(F)C(F)(F)C(F)(F)C(F)(F)C(F)(F)C(F)(F)C(F)(F)C(F)(F)F [PFTeDA, Perfluorotetradecanoic acid] | 42100 | 36400 | 35500 | 28600 | 19400 | 150000 | 139000 | 185000 | 222000 | 160000 |
| O=C(O)C(F)(F)C(F)(F)C(F)(F)C(F)(F)C(F)(F)C(F)(F)C(F)(F)C(F)(F)C(F)(F)F [PFDA, Perfluorodecanoic acid] | 602000 | 594000 | 547000 | 432000 | 399000 | 840000 | 862000 | 1120000 | 1360000 | 1100000 |

— US20240168008A1, “Methods of Breath-Based PFAS Exposure Assessment, and Systems for Practicing the Same” (priority 2022, published 2024)
